{
  "source": "patent US20090137664A1",
  "about": "“SAURURUS CERNUUS COMPOUNDS THAT INHIBIT CELLULAR RESPONSES TO HYPOXIA” (priority 2003, published 2009)",
  "tested_on": "HIF-1",
  "experiment": "pTK-HRE3-luc reporter assay, 1,10-phenanthroline-induced HIF-1 activation in T47D cells",
  "format": "cell-based, human",
  "text": "Iron chelators and transition metals (such as cobalt and nickel) can activate HIF-1 and have been used as chemical hypoxia mimetics. […] The expression of the HIF-1α subunit quantitatively determines HIF-1 biological activity (activation of transcription).",
  "note": "Some entries share one result that the patent states for a list of compounds.",
  "data": [
    {"smiles": "COc1cc(C(O)C(C)Oc2ccc(C3OC(c4ccc(OC(C)C(O)c5ccc6c(c5)OCO6)c(OC)c4)C(C)C3C)cc2OC)ccc1O", "note": "(stereo not shown) [Compound 1]", "values": [
      {"measurement": "specificity index SI=[IC50 for pTK-HRE3-luc by 1,10-phenanthroline]/[IC50 for pTK-HRE3-luc by hypoxia]", "value": "> 33"}
    ]}
  ]
}
